Results published in the supplement of paper PMC8551327.
Counter-ions that a name gives are not always drawn. Some of the results follow. Cut-off read from the data, not from the text of the source: active = 1.25 or more and inactive = the rest. Single values are uncertain, as repeats are few or missing.

The molecules below were run on Kcc2-LUC knock-in mouse primary cortical neurons (Kcc2 promoter reporter) (assay: Kcc2 promoter-driven luciferase activity relative to vehicle control (fold of vehicle (ratio)); higher = stronger Kcc2 promoter activation (Kcc2 expression enhancer)). Conditions: 100 nM; 48 h.

Kcc2 promoter-driven luciferase activity, active:
O=c1c(Br)c(-c2ccccc2)[nH]c2ccccc12 [3-Bromo-2-phenyl-1H-quinolin-4-one] 5.5
N#CC1=C(N)Oc2c(ccc3cccnc23)C1c1ccccc1 (stereo not given) [2-Amino-4-phenyl-4H-pyrano[3,2-h]quinoline-3-carbonitrile] 2.06
CC12CCC(CC1)C(C)(C)O2 [Eucalyptol] 1.48

Kcc2 promoter-driven luciferase activity, inactive:
C=C1C(=O)O[C@@H]2C[C@@]3(C)CCC[C@H](C)C3=C[C@H]12 [Alantolactone] 0.996
CC(=O)OCc1cc(=O)n(C)c2c3c4c(cc12)c(C)cc(=O)n4CO3 [Nybomycin Acetate] 0.84
COC(=O)Nc1nc2ccc(Br)cc2[nH]1 [methyl 6-bromo-1H-benzo[d]imidazol-2-ylcarbamate] 0.83
C=C(NC(=O)C(=C)NC(=O)c1csc(C2=N[C@@H]3c4csc(n4)C4NC(=O)c5csc(n5)C([C@](C)(O)[C@@H](C)O)NC(=O)[C@H]5CSC(=N5)/C(=C/C)NC(=O)C(C(C)O)NC(=O)c5csc(n5)C3(CC2)NC(=O)[C@H](C)NC(=O)C(=C)NC(=O)C(=C)NC(=O)C(C(C)C)N[C@@H]2C=Cc3c([C@@H](C)O)cc(nc3[C@H]2O)C(=O)OC4C)n1)C(N)=O (stereo not given in full) [siomycin A] 0.93
C[n+]1c(-c2ccc(/C=C/C=N/NC(=O)c3ccc(C(=O)N/N=C/C=C/c4ccc(-c5cn6ccccc6[n+]5C)cc4)cc3)cc2)cn2ccccc21 1.14
CN(C)c1ccc(/C=C2/C=Cc3ccccc32)cc1 [1-[4-(Dimethylaminobenzylidene)]indene] 0.48
CCCCCC[C@@H](C(C)O)n1cnc2c(N)ncnc21 (stereo in doubt) [(2S)-3-(6-Aminopurin-9-yl)nonan-2-ol hydrochloride] 1.2
C[C@H](CSC(=O)c1ccccc1)C(=O)N1c2ccccc2C[C@H]1C(=O)O 0.58
CN(CO)c1nc(N(C)CO)nc(N(C)CO)n1 [Trimethyl TMM] 0.87
CCCCCCCCCCCCCCCC(=O)O[C@@H]1[C@@H](C)[C@@]2(O)[C@@H](C=C(CO)C[C@]3(O)C(=O)C(C)=C[C@@H]23)[C@H]2C1(OC(C)=O)[C@]2(C)CO (stereo not given in full) [Croton Factor F1] 1
N[C@@H](Cc1ccc2oc3cc(=O)c4ccccc4c-3nc2c1)C(=O)O [1,2-Benzo-8-(L-alanyl)-3-phenoxazone nitrate salt] 0.79
CC(=O)Oc1ccc2ccc(=O)oc2c1OC(C)=O [Daphnetin Diacetate] 0.43
CN(C)c1ccc(C=c2c3ccccc3n3c2cc(-c2ccc(Cl)cc2)[n+]3C)cc1 1.01
O=C1c2ccccc2-c2c1c1ccccc1c(=O)n2Cc1ccccc1 [6-Benzylindeno[1,2-c]isoquinoline-5,11-dione] 0.8
CO[C@H]1[C@H](OC(=O)c2ccc(C)[nH]2)[C@H](O)[C@@H](Oc2ccc3c(O)c(NC(=O)c4c[nH]c(C(=O)Nc5c(O)c6ccc(O[C@H]7OC(C)(C)[C@@H](OC)[C@H](OC(=O)c8ccc(C)[nH]8)[C@@H]7O)c(C)c6oc5=O)c4C)c(=O)oc3c2C)OC1(C)C [Coumermycin A1] 0.98
CCCCCCCCCc1c(Cl)nc(Cl)nc1Cl [2,4,6-Trichloro-5-nonylpyrimidine] 1.07
C=C1C(=O)O[C@@H]2[C@H]3C(C)=C[C@@H](O)[C@H]3[C@@]3(CO3)C[C@@H](OC(=O)/C(C)=C\COC(C)=O)[C@@H]12 [Deoxyliatrigramin] 1.04
CCN(CC)CCOc1ccc(C(O)(Cc2ccc(OC)cc2)c2ccccc2)cc1 (stereo not given) 0.24
CC(=O)O[C@@H]1CO[C@H]2O[C@H]3[C@@H](C(C=O)=C[C@H](O)[C@@H]4C5=C(C(C)C)CC[C@]5(C)CC[C@@]34C)[C@@]2(O)C1=O [Straital B] 0.87
O=C1c2cccnc2-c2nccc3c2c1nc1cc(Br)ccc13 [2-Bromoleptoclinidinone] 1.14
O=c1oc2cc(O)ccc2c2oc3cc(O)ccc3c12 [Coumestrol] 1.05
CC[C@]1(O)C[C@H]2CN(CCc3c([nH]c4ccccc34)[C@@](C(=O)OC)(c3cc4c(cc3OC)N(C=O)[C@H]3[C@@](O)(C(=O)OC)[C@H](OC(C)=O)[C@]5(CC)C=CCN6CC[C@]43[C@@H]65)C2)C1 [Vincristine sulfate] 1.09

Seven neighbouring records from above, quoted:
Kcc2 promoter-driven luciferase activity, inactive:
CN(C)c1ccc(C=c2c3ccccc3n3c2cc(-c2ccc(Cl)cc2)[n+]3C)cc1 1.01
O=C1c2ccccc2-c2c1c1ccccc1c(=O)n2Cc1ccccc1 [6-Benzylindeno[1,2-c]isoquinoline-5,11-dione] 0.8
CO[C@H]1[C@H](OC(=O)c2ccc(C)[nH]2)[C@H](O)[C@@H](Oc2ccc3c(O)c(NC(=O)c4c[nH]c(C(=O)Nc5c(O)c6ccc(O[C@H]7OC(C)(C)[C@@H](OC)[C@H](OC(=O)c8ccc(C)[nH]8)[C@@H]7O)c(C)c6oc5=O)c4C)c(=O)oc3c2C)OC1(C)C [Coumermycin A1] 0.98
CCCCCCCCCc1c(Cl)nc(Cl)nc1Cl [2,4,6-Trichloro-5-nonylpyrimidine] 1.07
C=C1C(=O)O[C@@H]2[C@H]3C(C)=C[C@@H](O)[C@H]3[C@@]3(CO3)C[C@@H](OC(=O)/C(C)=C\COC(C)=O)[C@@H]12 [Deoxyliatrigramin] 1.04
CCN(CC)CCOc1ccc(C(O)(Cc2ccc(OC)cc2)c2ccccc2)cc1 (stereo not given) 0.24
CC(=O)O[C@@H]1CO[C@H]2O[C@H]3[C@@H](C(C=O)=C[C@H](O)[C@@H]4C5=C(C(C)C)CC[C@]5(C)CC[C@@]34C)[C@@]2(O)C1=O [Straital B] 0.87
